Data set [1] is described as follows: general procedure: Fmoc solid-phase peptide synthesis; 2-chlorotrityl chloride resin (0.89 mmol/g); HATU/DIPEA (solution couplings).
Data set [2] is described as follows: general procedure: Fmoc solid-phase peptide synthesis; 2-chlorotrityl chloride resin; HATU/DIPEA (solution couplings). Conditions: whole synthesis, trifluoroacetate.
Data set [3] in a line: Fmoc solid-phase peptide synthesis; 2-chlorotrityl chloride resin; HATU/DIPEA (solution couplings). Conditions: whole synthesis, scale 1.000 g resin (0.89 mmol/g), trifluoroacetate.
Another data set is described as follows: peptide synthesis. Conditions: conjugation step, trifluoroacetate.
[4] abbreviates: late stage modification step, trifluoroacetate.
Where [5] appears, read: scale 1.000 g resin (0.89 mmol/g).

The source of these data is article PMC12569658 (JACS Au, 2025).

With “Ac-Ala-Lys[Tyr(tBu)-Ala-(Fmoc)Ala]-2-methylethylamino trifluoroacetate”, the step yield in data set [1] (setting [4]) worked out at 16% yield.
As to Ac-Ala-Lys[Tyr(tBu)-Ala-Ala-Fmoc], the step yield in data set [1] (coupling step, trifluoroacetate) was determined as 81% yield.
Substance “Ac-Ala-Lys[Tyr-Ala-Ala]-(2-(pNP-thionocarbamate)methyl)ethylamino trifluoroacetate” had a step yield in data set [1] (late stage modification step, over three steps from 34, trifluoroacetate) of 67% yield over three steps.
“Ac-Lys[Phe-Ala-Ala]-(2-(pNP-thionocarbamate)methyl)ethylamino trifluoroacetate” registered a step yield in data set [1] (coupling step, from 9, trifluoroacetate) of 46% yield.
In turn, Ac-Lys[Tyr(tBu)-Ala-(Fmoc)Ala] had a crude yield in data set [2] (setting [5]) of 56% yield. In data set [3], the crude mass is recorded as 387 mg.
Take “Ac-Lys[Tyr(tBu)-Ala-(Fmoc)Ala]-2-methylethylamino trifluoroacetate”: the step yield in data set [1] (setting [4]) came out at 31% yield.
In turn, Ac-Lys[Tyr(tBu)-Ala-Ala-(Boc)Ala] gave a crude yield in data set [2] (setting [5]) of 75% yield. In data set [3], this substance displayed a crude mass of 540 mg.
For “Ac-Lys[Tyr(tBu)-Ala-Ala-(Boc)Ala]-2-methylethylamino trifluoroacetate”, the step yield in data set [1] (setting [4]) is on record as 53% yield.
On to Ac-Lys[Tyr(tBu)-Ala-Ala-(Fmoc)Ala], for which the crude yield in data set [2] (scale of the general procedure 1.000 g resin) was determined as 51% yield. This substance also registered a crude mass in data set [2] of 383 mg.
On to “Ac-Lys[Tyr(tBu)-Ala-Ala-(Fmoc)Ala]-2-methylethylamino trifluoroacetate”, for which, in data set [1] (late stage modification step, over two steps from 15, trifluoroacetate), the step yield stood at 11% yield over two steps.
As to “Ac-Lys[Tyr(tBu)-Ala-Ala-Ala]-(2-(pNP-thionocarbamate)methyl)ethylamino trifluoroacetate”, in data set [1] (setting [4]), the step yield came to 48% yield.
Consider “Ac-Lys[Tyr-Ala-Ala-Ala]-(2-(oxycodone-thionocarbamate)methyl)ethylamino ditrifluoroacetate”, for which the conjugation yield in the data set “peptide synthesis” is given as 56% yield.
“Ac-Lys[Tyr-Ala-Ala-Ala]-(2-(pNP-thionocarbamate)methyl)ethylamino trifluoroacetate” gave a step yield in data set [1] (setting [4]) of 50% yield.
“Ac-Lys[Tyr-Ala-Ala]-(2-(pNP-thionocarbamate)methyl)ethylamino trifluoroacetate”: the step yield in data set [1] (late stage modification step, from 28, trifluoroacetate) worked out at 54% yield.
Consider Ala-Ala-Ala-Tyr trifluo, for which the crude mass in data set [1] (whole synthesis, TFA salt) turned out to be 286 mg. In data set [1] (whole synthesis, scale of the general procedure 1.000 g resin, trifluoroacetate), this substance displayed a crude yield of 77% yield.
Substance “Ala-Ala-Lys[(Ac)Phe]-(2-(pNP-thionocarbamate)methyl)ethylamino trifluoroacetate” registered a step yield in data set [1] (coupling step, from 7, trifluoroacetate) of 91% yield.
